Measured values published in publication PMC9463140.
No constants are given. Whether binding was seen depends on the method and setting. Some binding calls cover weakened binding; strength is not graded here.

By UniProt entry, the sequences of proteins in these tests, tags left out. Where a name states a change or a piece, a line headed by the entry shows the natural chain unless it says otherwise. Chains listed by the source or under a name are the forms on record and can include a tag or linker.
rat non-gastric H+,K+-ATPase α subunit SPWC mutant (Lys794Ser/Ala797Pro/Ile943Trp/Arg949Cys) (P54708, form named): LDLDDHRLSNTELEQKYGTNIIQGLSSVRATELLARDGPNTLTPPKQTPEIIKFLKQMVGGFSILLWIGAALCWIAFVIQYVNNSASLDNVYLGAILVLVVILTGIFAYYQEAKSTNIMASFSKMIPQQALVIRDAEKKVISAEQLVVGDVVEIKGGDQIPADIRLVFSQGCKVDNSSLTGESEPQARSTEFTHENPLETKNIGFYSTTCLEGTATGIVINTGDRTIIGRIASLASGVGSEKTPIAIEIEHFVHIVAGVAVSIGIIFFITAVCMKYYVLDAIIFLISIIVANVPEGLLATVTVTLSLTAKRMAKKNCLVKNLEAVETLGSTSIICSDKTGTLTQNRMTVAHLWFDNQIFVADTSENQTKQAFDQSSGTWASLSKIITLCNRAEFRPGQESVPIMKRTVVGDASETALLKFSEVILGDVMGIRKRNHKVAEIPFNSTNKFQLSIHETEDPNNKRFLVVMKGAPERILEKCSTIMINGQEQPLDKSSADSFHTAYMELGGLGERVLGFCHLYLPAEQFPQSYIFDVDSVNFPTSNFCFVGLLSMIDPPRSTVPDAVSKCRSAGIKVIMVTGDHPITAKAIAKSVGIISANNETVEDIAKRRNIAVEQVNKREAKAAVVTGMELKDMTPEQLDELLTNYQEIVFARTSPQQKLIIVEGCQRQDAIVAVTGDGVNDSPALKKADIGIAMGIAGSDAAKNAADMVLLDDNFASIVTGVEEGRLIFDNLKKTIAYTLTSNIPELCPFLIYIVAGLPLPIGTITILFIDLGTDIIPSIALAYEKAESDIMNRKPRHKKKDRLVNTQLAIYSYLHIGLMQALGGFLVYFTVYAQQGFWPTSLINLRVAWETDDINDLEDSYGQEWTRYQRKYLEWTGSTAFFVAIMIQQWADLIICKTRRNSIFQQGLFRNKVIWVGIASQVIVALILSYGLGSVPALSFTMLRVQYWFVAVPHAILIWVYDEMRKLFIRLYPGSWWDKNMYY
rat non-gastric H+,K+-ATPase (ngHKA) α subunit, wild type (P54708, form named): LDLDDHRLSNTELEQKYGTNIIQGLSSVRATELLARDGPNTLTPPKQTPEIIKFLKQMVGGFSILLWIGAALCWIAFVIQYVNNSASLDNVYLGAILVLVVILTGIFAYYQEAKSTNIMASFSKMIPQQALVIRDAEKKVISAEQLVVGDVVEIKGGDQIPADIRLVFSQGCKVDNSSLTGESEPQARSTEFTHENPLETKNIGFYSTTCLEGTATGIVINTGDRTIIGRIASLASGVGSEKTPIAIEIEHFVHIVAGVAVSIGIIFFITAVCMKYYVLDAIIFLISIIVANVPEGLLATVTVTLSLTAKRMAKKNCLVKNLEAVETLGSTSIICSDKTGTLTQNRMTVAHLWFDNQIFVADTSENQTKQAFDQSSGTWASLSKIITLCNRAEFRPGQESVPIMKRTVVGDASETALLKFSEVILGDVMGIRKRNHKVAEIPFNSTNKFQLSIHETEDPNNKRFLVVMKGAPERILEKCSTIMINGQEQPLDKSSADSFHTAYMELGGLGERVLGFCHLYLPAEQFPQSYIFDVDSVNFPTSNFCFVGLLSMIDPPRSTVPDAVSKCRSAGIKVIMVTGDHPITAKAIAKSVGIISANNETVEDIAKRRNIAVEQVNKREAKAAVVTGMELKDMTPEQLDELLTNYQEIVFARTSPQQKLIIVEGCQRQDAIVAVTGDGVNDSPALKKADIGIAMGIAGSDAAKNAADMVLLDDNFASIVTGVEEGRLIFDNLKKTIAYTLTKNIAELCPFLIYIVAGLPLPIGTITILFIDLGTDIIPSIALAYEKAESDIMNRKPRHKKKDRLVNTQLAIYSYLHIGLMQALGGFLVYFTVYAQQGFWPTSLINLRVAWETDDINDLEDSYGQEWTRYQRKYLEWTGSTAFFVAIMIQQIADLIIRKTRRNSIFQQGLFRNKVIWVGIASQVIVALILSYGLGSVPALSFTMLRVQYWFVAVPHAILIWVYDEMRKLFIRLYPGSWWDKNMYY
rat non-gastric H+,K+-ATPase α subunit Lys794Ser (P54708, form named): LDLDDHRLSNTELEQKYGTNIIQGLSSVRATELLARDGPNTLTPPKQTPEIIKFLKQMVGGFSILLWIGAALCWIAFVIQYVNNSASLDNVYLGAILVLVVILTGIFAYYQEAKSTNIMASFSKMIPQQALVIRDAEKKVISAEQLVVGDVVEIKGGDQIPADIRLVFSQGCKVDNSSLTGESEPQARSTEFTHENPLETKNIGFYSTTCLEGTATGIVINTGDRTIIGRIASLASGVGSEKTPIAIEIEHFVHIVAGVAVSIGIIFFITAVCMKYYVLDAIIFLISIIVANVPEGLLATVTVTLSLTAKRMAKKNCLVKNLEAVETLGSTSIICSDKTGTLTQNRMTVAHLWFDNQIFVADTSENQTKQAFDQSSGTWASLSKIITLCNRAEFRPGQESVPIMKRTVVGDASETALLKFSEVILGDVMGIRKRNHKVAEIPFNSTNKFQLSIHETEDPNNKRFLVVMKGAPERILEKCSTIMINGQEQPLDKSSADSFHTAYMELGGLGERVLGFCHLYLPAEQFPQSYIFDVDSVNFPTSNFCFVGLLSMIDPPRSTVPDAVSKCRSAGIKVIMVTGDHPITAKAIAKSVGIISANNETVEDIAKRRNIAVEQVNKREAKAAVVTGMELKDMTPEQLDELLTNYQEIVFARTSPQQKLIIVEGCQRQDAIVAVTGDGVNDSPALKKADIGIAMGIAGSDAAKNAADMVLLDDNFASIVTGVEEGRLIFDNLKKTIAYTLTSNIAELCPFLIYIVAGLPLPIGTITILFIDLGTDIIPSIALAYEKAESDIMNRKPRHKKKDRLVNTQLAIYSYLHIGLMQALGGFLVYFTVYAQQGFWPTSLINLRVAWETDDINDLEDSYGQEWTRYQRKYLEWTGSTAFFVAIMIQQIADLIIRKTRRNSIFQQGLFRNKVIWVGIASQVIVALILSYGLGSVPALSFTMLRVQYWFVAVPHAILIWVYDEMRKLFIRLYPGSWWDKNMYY
rat non-gastric H+,K+-ATPase α subunit Lys794Ala (P54708, form named): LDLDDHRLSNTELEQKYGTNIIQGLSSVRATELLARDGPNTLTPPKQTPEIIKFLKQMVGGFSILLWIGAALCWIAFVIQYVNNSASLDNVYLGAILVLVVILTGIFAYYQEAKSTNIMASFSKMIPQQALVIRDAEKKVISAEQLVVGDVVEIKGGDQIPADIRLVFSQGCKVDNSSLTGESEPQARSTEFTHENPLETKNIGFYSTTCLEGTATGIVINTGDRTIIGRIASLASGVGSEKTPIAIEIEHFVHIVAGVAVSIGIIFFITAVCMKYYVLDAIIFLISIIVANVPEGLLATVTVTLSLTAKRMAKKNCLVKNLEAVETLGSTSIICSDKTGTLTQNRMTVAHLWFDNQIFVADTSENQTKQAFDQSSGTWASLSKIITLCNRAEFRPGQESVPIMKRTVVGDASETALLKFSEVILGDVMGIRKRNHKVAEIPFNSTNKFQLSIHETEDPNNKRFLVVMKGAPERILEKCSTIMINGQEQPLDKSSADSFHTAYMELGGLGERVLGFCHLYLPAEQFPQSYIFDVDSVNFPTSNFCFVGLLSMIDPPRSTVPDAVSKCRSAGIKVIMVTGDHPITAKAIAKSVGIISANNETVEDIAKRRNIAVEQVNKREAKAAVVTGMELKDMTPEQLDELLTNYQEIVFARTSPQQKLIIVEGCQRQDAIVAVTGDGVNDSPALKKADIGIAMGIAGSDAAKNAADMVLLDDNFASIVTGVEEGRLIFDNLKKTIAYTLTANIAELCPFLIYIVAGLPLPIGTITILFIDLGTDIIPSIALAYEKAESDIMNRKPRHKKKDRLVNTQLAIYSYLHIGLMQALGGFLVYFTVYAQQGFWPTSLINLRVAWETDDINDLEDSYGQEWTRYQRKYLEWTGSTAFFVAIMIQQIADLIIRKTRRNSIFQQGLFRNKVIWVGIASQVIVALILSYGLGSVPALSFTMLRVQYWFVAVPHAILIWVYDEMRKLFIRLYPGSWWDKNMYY

Experiments:
[1] = target: rat non-gastric H+,K+-ATPase α subunit SPWC mutant (Lys794Ser/Ala797Pro/Ile943Trp/Arg949Cys) (rat) (UniProt P54708); assay: cryo-EM structure; αβ complex co-expressed and purified together in GDN; 300 mM NaCl, 5 mM AMPPCP, pH 6.5; 3Na+·E1-ATP state; both purified
[2] = target: rat non-gastric H+,K+-ATPase (ngHKA) α subunit, wild type (rat) (UniProt P54708); assay: crystal structure; αβ complex co-expressed and purified together, lipidated with dioleoyl phosphatidylcholine; vapor diffusion at 20 °C; K+ (or Rb+) and AlF4, (K+)E2-Pi state; both purified
[3] = target: rat non-gastric H+,K+-ATPase α subunit Lys794Ser (rat) (UniProt P54708); assay: cryo-EM structure; αβ complex co-expressed and purified together in GDN; 100 mM KCl, 1 mM AlCl3, 4 mM NaF, pH 6.5; (K+)E2-Pi state; both purified
[4] = target: rat non-gastric H+,K+-ATPase α subunit SPWC mutant (Lys794Ser/Ala797Pro/Ile943Trp/Arg949Cys) (rat) (UniProt P54708); assay: as above
[5] = target: rat non-gastric H+,K+-ATPase α subunit Lys794Ala (rat) (UniProt P54708); assay: as above

binding [1]: binds
binding [2]: binds
binding [3]: binds
binding [4]: binds
binding [5]: binds
Substance: rat Na+,K+-ATPase (NKA) β1 subunit, wild type (from UniProt P07340 1-304)
